Source: US20090149551A1 (priority 2007, published 2009)

Test system: P. falciparum clone Dd2
Test: microbe, parasite or virus in culture
Format: cell-based
Conditions: Plasmodium falciparum, DD2, read-out: IC50 against P. falciparum clone Dd2
Method: Cultures of Plasmodium falciparum.
In vitro antiplasmodial activity: All solutions of chloroquine diphosphate, artemisinin (Sigma Aldrich), and OHCT were prepared in media RPMI 1640, ethanol and 0.1% DMSO, respectively. […] Parasite growth was estimated by microscopic observation of Giemsa-stained blood smears. All results presented are the means of at least three independent experiments.
OHCT action on specific parasite life cycle stages: P. falciparum cultures were synchronized with 5% sorbitol and the Percoll-Sorbitol methods. Dilutions of OHCT, chloroquine, and artemisinin were prepared. To determine the in vitro efficacies of the three antimalarial drugs in culture, serial dilutions were prepared: for artemisinin, chloroquine and OHCT at 2, 4, 8, 16, 32 and 40 μM, respectively. After synchronization, the parasites were plated at the ring stage in 96-well plates. Each plate corresponded to one of the successive 6-h periods of the P. falciparum life cycle.

## CCN(CC)CCCC(C)Nc1ccnc2cc(Cl)ccc12 (stereo not shown) [chloroquine, reference compound]
  IC50: 0.56 µM
